The values below come from paper PMC10291038.

The target in assay [1] is T1, PKS4 C* variant (Cys-143 and Cys-145 of motif C mutated to Ser) with a carboxyl-terminal triple HA tag (Arabidopsis thaliana) (UniProt Q9FYE2).
T1 sequence: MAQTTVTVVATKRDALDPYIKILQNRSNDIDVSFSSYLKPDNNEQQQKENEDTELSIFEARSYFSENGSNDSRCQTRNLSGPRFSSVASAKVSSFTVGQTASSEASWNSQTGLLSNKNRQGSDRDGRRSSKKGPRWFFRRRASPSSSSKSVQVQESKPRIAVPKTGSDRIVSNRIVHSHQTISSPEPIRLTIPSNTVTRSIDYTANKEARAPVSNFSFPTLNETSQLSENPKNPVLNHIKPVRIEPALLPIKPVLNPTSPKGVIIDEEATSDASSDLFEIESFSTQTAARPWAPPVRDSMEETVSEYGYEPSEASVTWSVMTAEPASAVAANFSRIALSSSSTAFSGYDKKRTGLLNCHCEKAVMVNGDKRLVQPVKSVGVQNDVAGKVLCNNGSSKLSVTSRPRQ
The assay is described as follows: co-IP; solubilized microsome fraction S3 (extraction buffer with 0.5% Triton X-100) of 3-d-old etiolated seedlings; anti-HA magnetic beads (Miltenyi µMACS HA kit), 90 min at 4 °C; immunoblot with anti-HA and anti-NPH3. (In general: A western blot detects proteins with antibodies after separation by electrophoresis.)

Assay [2] concerns the target T2, PHYTOCHROME KINASE SUBSTRATE 4 with a carboxyl-terminal triple HA tag (PKS4-3xHA, wild type) (Arabidopsis thaliana) (UniProt Q9FYE2).
T2 sequence: T1 sequence with S143C, S145C
The assay is described as above.

Changes are numbered by the printed parent chain. Results are given in words; binding and its absence hold for the method and conditions named. In cells and extracts the contact can be indirect. Some entries that bind do so weakly or less than the wild type. Tags and fused reporters may be left off the sequences shown.

B1: NONPHOTOTROPIC HYPOCOTYL 3 (protein, UniProt Q9FMF5 1-746)
chain: MMWESESDGGVGVGGGGGREYGDGVLSSNKHGGVKTDGFELRGQSWFVATDIPSDLLVKIGDMNFHLHKYPLLSRSGKMNRLIYESRDPDPTILILDDLPGGPEAFELASKFCYGVPVDLTATNISGLRCAAEYLEMTEDLEEGNLIFKTEAFLSYVVLSSWRDSILVLKSCEKLSPWAENLQIVRRCSESIAWKACSNPKGIRWAYTGKAPSPSTTNFAGSSPRWNESKDSSFYCSPSRNTNSQPVPPDWWFEDVSILRIDHFVRVITAIKVKGMRFELLGAVIMHYAGKWLPGLIKEGGVAIAPAMSSAIGGGLGLGGDEMSISCGSNSSGGSSGPDWKGGLHMVLSAGKTNGHQDSVACLAGLGISPKDQRMIVESLISIIPPQKDSVTCSFLLRLLRAANMLKVAPALITELEKRVGMQFEQATLQDLLIPGYNNKGETMYDVDLVQRLLEHFLVQEQTEGSSPSRMSPSPSQSMYADIPRGNNNNGGGGGGNNQNAKMRVARLVDSYLTEVARDRNLPLTKFQVLAEALPESARTCDDGLYRAIDSYLKAHPTLSEHERKRLCRVMDCQKLSMDACMHAAQNERLPLRVVVQVLFSEQVKISNALANTSLKESTTLGEAMGTYQPMIPNRKTLIEATPQSFQEGWAAAKKDINTLKFELETVKTKYVELQNEMEVMQRQFEKTGKVKNTPSSSAWTSGWKKLSKLTKMSGQESHDISSGGEQAGVDHPPPRKPRRWRNSIS
In the case of B1, the binding entry in assay [1] and in assay [2] was “binds” in each case.
